# Data taken from publication PMC11396530.
# Sequences of proteins named here, by UniProt entry; tags and fusion partners are left off. Residues count along the entry.
# UniProt P11021, residues 19-654: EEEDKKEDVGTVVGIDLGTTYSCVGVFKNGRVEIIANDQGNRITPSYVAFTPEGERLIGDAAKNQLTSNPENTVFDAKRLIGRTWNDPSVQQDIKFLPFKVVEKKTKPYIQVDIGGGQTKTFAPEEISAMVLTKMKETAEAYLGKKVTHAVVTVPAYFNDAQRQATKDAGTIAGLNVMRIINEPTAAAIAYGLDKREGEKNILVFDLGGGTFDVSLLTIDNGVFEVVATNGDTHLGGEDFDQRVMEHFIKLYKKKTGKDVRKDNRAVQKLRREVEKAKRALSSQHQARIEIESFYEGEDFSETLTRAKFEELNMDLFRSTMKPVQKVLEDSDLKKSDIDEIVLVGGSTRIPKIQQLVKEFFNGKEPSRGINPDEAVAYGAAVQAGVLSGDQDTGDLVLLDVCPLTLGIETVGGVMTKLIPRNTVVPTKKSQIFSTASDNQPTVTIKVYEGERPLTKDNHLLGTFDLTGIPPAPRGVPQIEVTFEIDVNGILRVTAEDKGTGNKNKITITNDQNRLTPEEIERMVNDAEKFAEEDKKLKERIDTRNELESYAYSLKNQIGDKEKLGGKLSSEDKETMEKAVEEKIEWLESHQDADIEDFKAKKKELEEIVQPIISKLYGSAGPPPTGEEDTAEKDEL
# Results are given in words; binding and its absence hold for the method and conditions named. Binding seen in cells or lysates may run through a third protein. Here binding means that the protein was enriched with, or labelled near, the bait; the list need not be complete. Tags and fused reporters may be left off the sequences shown.
# Target: T1, glucosidase I (GCS1), endogenous (human (endogenous in DLD-1 and RKO)) (UniProt Q13724)
# T1 sequence: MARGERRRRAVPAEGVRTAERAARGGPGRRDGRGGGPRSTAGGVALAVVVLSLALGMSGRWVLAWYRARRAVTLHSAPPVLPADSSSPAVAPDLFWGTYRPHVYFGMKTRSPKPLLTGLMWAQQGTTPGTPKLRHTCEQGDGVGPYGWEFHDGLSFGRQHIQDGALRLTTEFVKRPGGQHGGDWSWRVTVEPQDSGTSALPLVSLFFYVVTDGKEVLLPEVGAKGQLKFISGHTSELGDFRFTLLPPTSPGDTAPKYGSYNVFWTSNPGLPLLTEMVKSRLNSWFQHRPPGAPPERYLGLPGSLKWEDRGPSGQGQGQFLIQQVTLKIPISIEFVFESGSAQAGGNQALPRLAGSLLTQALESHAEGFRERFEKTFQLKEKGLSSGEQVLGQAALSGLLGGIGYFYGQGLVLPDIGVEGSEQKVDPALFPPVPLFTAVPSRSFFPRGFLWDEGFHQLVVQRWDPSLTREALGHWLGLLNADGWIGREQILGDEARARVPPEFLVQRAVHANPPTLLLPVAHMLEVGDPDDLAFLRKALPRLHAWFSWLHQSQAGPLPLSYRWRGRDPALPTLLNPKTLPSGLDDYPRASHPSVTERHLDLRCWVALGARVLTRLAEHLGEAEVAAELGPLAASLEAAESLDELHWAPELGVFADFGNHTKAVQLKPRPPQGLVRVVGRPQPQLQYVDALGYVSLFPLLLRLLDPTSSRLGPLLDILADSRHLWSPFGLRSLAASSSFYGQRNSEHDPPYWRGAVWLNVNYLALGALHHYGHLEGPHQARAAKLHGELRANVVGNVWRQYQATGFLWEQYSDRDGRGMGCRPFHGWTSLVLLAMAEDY
# Experiment: affinity purification with mass spectrometry; IP of endogenous GCS1 from DLD-1 cell lysate with anti-GCS1 on Protein A/G magnetic beads (IgG as negative control), silver staining and LC-MS
substance,measurement,value
"GRP78, endogenous (from UniProt P11021 19-654)",binding,binds
